# According to the supplement of paper PMC8728848:
# The other results are listed elsewhere or left out.
# B1: CM2 (Cordyceps militaris) (protein)
# chain: MEIAEQNVGKSCAIVNLIPPKEGSNIWTAKQVTIARNLPPNRGTGRHQIDWSFGPVKVTGYVDTTNWEIGVTVSIMGIDLGTVYGNLRDGVVLNVDLFLAKGQVRFYLKNGNEVWVHLSVEIRFDGKFEGDYKIITV
# How the values were obtained:
# Assay in all cases: glycan array binding signal (z-score within array); higher = stronger binding
# Conditions in all cases: glycan notation: IUPAC condensed, linker removed
# Neu5Ac(a2-8)Neu5Ac = biological target: Neu5Ac(a2-8)Neu5Ac
# Method in brief: (§1)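 The binding signal is a Z-score computed within each array and averaged over linkers. Arrays of the same protein sequence at different concentrations or buffers were also averaged together. Data originate from 3228 arrays in the Consortium for Functional Glycomics database, kept only where the protein sequence was available.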
# [1] = biological target: Neu5Ac(a2-8)Neu5Ac(a2-3)Gal(b1-3)GalNAc(b1-4)[Neu5Ac(a2-3)]Gal(b1-4)Glc
# Method in brief: as §1
# [2] = biological target: Neu5Ac(a2-8)Neu5Ac(a2-3)Gal(b1-3)GalNAc(b1-4)[Neu5Ac(a2-8)Neu5Ac(a2-3)]Gal(b1-4)Glc
# Method in brief: as §1
# [3] = biological target: Neu5Ac(a2-8)Neu5Ac(a2-3)Gal(b1-4)Glc
# Method in brief: as §1
# [4] = biological target: Neu5Ac(a2-8)Neu5Ac(a2-3)Gal(b1-4)GlcNAc
# Method in brief: as §1
# [5] = biological target: Neu5Ac(a2-8)Neu5Ac(a2-3)[Gal(b1-3)GalNAc(b1-4)]Gal(b1-4)Glc
# Method in brief: as §1
# [6] = biological target: Neu5Ac(a2-8)Neu5Ac(a2-3)[GalNAc(b1-4)]Gal(b1-4)Glc
# Method in brief: as §1
# [7] = biological target: Neu5Ac(a2-8)Neu5Ac(a2-8)Neu5Ac
# Method in brief: as §1
# [8] = biological target: Neu5Ac(a2-8)Neu5Ac(a2-8)Neu5Ac(a2-3)Gal(b1-4)Glc
# Method in brief: as §1
# [9] = biological target: Neu5Ac(a2-8)Neu5Ac(a2-8)Neu5Ac(a2-3)[Gal(b1-3)GalNAc(b1-4)]Gal(b1-4)Glc
# Method in brief: as §1
# [10] = biological target: Neu5Ac(a2-8)Neu5Ac(a2-8)Neu5Ac(a2-3)[GalNAc(b1-4)]Gal(b1-4)Glc
# Method in brief: as §1
# [11] = biological target: Neu5Ac(a2-8)Neu5Ac(a2-8)Neu5Ac(a2-8)Neu5Ac(a2-3)[GalNAc(b1-4)]Gal(b1-4)Glc
# Method in brief: as §1
# [12] = biological target: Neu5Ac(a2-8)Neu5Gc(a2-3)Gal(b1-4)GlcNAc
# Method in brief: as §1
# [13] = biological target: Neu5Ac(b2-6)Gal(b1-4)GlcNAc
# Method in brief: as §1
# Neu5Ac(b2-6)GalNAc = biological target: Neu5Ac(b2-6)GalNAc
# Method in brief: as §1
# [14] = biological target: Neu5Ac9Ac(a2-3)Gal(b1-3)GlcNAc
# Method in brief: as §1
# [15] = biological target: Neu5Ac9Ac(a2-3)Gal(b1-4)GlcNAc
# Method in brief: as §1
# [16] = biological target: Neu5Ac9Ac(a2-6)Gal(b1-4)GlcNAc
# Method in brief: as §1
# [17] = biological target: Neu5Gc(a2-3)Gal(b1-3)GlcNAc
# Method in brief: as §1
# [18] = biological target: Neu5Gc(a2-3)Gal(b1-3)[Fuc(a1-4)]GlcNAc
# Method in brief: as §1
# Neu5Gc(a2-3)Gal(b1-4)Glc = biological target: Neu5Gc(a2-3)Gal(b1-4)Glc
# Method in brief: as §1
# [19] = biological target: Neu5Gc(a2-3)Gal(b1-4)GlcNAc
# Method in brief: as §1
# [20] = biological target: Neu5Gc(a2-3)Gal(b1-4)GlcNAc(b1-3)Gal(b1-4)GlcNAc(b1-2)Man(a1-3)[Neu5Gc(a2-3)Gal(b1-4)GlcNAc(b1-3)Gal(b1-4)GlcNAc(b1-2)Man(a1-6)]Man(b1-4)GlcNAc(b1-4)GlcNAc
# Method in brief: as §1
# [21] = biological target: Neu5Gc(a2-3)Gal(b1-4)[Fuc(a1-3)]GlcNAc
# Method in brief: as §1
# [22] = biological target: Neu5Gc(a2-6)Gal(b1-4)GlcNAc
# Method in brief: as §1
# Neu5Gc(a2-6)GalNAc = biological target: Neu5Gc(a2-6)GalNAc
# Method in brief: as §1
# [23] = biological target: Neu5Gc(a2-8)Neu5Ac(a2-3)Gal(b1-4)GlcNAc
# Method in brief: as §1
# [24] = biological target: Neu5Gc(a2-8)Neu5Gc(a2-3)Gal(b1-4)GlcNAc
# Method in brief: as §1
# [25] = biological target: Neu5Gc(a2-8)Neu5Gc(a2-3)Gal(b1-4)GlcNAc(b1-3)Gal(b1-4)GlcNAc
# Method in brief: as §1
# [26] = biological target: Neu5Gc(a2-8)Neu5Gc(a2-6)Gal(b1-4)GlcNAc
# Method in brief: as §1
# [27] = biological target: Neu5Gc(b2-6)Gal(b1-4)GlcNAc
# Method in brief: as §1
binder,measurement,setting,value
B1,glycan array binding signal (z-score),Neu5Ac(a2-8)Neu5Ac,-0.43
same,glycan array binding signal (z-score),[1],-0.16
same,glycan array binding signal (z-score),[2],0.161
same,glycan array binding signal (z-score),[3],-0.496
same,glycan array binding signal (z-score),[4],-1.84
same,glycan array binding signal (z-score),[5],-0.036
same,glycan array binding signal (z-score),[6],-1.4
same,glycan array binding signal (z-score),[7],0.451
same,glycan array binding signal (z-score),[8],0.46
same,glycan array binding signal (z-score),[9],-0.622
same,glycan array binding signal (z-score),[10],1.56
same,glycan array binding signal (z-score),[11],-0.964
same,glycan array binding signal (z-score),[12],-1.52
same,glycan array binding signal (z-score),[13],-0.375
same,glycan array binding signal (z-score),Neu5Ac(b2-6)GalNAc,-0.438
same,glycan array binding signal (z-score),[14],-0.873
same,glycan array binding signal (z-score),[15],-0.725
same,glycan array binding signal (z-score),[16],-0.168
same,glycan array binding signal (z-score),[17],1.54
same,glycan array binding signal (z-score),[18],-0.29
same,glycan array binding signal (z-score),Neu5Gc(a2-3)Gal(b1-4)Glc,1.76
same,glycan array binding signal (z-score),[19],-2.11
same,glycan array binding signal (z-score),[20],-1.5
same,glycan array binding signal (z-score),[21],-1.07
same,glycan array binding signal (z-score),[22],2.22
same,glycan array binding signal (z-score),Neu5Gc(a2-6)GalNAc,-1.22
same,glycan array binding signal (z-score),[23],-0.302
same,glycan array binding signal (z-score),[24],0.593
same,glycan array binding signal (z-score),[25],-0.074
same,glycan array binding signal (z-score),[26],-0.469
same,glycan array binding signal (z-score),[27],-0.922

# Already shown: an excerpt of the list.
binder,measurement,setting,value
B1,glycan array binding signal (z-score),[20],-1.5
same,glycan array binding signal (z-score),[21],-1.07
